According to PMC3808333:

Molecular target: T1, AtTPX2-GFP (Arabidopsis thaliana targeting protein for Xklp2 fused to GFP) (Arabidopsis thaliana) (UniProt F4I2H7)
T1 sequence: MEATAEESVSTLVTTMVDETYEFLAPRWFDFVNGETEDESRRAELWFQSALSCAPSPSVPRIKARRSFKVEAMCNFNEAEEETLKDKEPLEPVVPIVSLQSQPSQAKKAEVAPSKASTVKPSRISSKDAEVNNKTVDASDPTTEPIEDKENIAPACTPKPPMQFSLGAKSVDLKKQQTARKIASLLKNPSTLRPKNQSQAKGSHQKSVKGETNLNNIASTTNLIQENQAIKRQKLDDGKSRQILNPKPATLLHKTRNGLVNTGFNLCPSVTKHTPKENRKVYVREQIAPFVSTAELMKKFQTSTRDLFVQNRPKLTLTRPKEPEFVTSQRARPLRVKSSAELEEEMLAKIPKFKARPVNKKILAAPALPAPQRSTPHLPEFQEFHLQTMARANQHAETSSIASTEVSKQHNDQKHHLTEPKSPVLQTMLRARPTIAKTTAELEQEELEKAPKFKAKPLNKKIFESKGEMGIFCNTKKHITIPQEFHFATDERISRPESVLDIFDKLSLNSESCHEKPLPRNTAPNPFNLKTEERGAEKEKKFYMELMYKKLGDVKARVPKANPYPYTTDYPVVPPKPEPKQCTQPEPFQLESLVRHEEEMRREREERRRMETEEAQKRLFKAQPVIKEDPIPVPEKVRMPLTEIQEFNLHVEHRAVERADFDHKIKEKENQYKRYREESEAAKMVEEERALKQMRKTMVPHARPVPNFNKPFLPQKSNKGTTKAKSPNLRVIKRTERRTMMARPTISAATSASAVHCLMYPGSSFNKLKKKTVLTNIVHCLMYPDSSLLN
Assay: co-IP; GFP-Trap A beads with extract of A. thaliana cell culture expressing AtTPX2-GFP (10,000 g supernatant, 3-4 mg/ml protein, used directly or solubilized by 1% NP-40), 1.5 h at 4 °C; elution with glycine pH 2.5; immunoblot; GFP immunoprecipitate from wild-type Ler culture as negative control

Substance: importin
- binding: binds

No constants are given. Whether binding was seen depends on the method and setting. In cells and extracts the contact can be indirect. Binding can be weak; no strength is given. Tags and fused reporters may be left off the sequences shown.
